Experimental data: PubChem BioAssay AID1508597 (Cure First, 2020)

- Assay: 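Genes whose silencing sensitises or protects ovarian cancer cells against rucaparib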 (primary screen)
- Cells: human ovarian carcinoma lines grown from tumours: OCI-P5x (papillary serous) and OCI-C5x (clear cell)
- Knock-down reagent: siRNA pool against human genes, 1.25 pmol siRNA per well
- Timing: 72 h or 96 h, depending on the cell culture
- Conditions: rucaparib 20 µM (about IC30) or vehicle, present until read-out
- Rucaparib or vehicle: Rucaparib
- Cell line: OCI-C5x (clear cell)
- Detection: 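ATP luminescence measured at 72 or 96 h according to the culture, then normalised and expressed as percent viability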
- Reading the numbers: viability, normalised: higher = more viable cells remaining
- Hit rule: 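a well counts as a hit if its normalised viability is under 80 percent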
- Calls: active = viability under 80%; inactive = viability 80% or more
This is an unselected part of the about 2,100 reagents, under one of the conditions tested. 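Calls flag viability under 80% in either arm, not effects specific to rucaparib; the reference for percent is not stated.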 Some reagents were tested in more than one well and are listed for each. The record does not give: the 100% reference.

gene knocked down	technical replicate	viability, normalised (%)	outcome
NME4	1	54.6	active
NME4	1	69.9	active
NME4	2	54	active
NME4	2	38.8	active
NME4	2	50.9	active
NME4	3	71.9	active
NME4	3	52.2	active
NME4	3	69.8	active
NAALADL1	1	42.6	active
NAALADL1	2	55.5	active
NAALADL1	3	46.9	active
KDM5B	1	47.8	active
KDM5B	2	30.4	active
KDM5B	3	31.9	active
PFKL	1	70.4	active
PFKL	2	53.9	active
PFKL	3	54.8	active
DHX32	1	45.3	active
DHX32	2	47.6	active
DHX32	3	35.9	active
SKP1	1	45.7	active
SKP1	2	57.5	active
SKP1	3	55.6	active
TDP1	1	52.2	active
TDP1	1	89.9	inactive
TDP1	2	74.4	active
TDP1	2	44	active
TDP1	3	51.9	active
TDP1	3	83.5	inactive
DMTF1	1	47.3	active
DMTF1	2	46.6	active
DMTF1	3	46.6	active
MACROH2A2	1	39.3	active
MACROH2A2	2	47.3	active
MACROH2A2	3	36.8	active
PKD2L2	1	68.8	active
PKD2L2	2	60.4	active
PKD2L2	3	69.3	active
ADCK1	1	68.2	active
ADCK1	2	59.2	active
ADCK1	3	88	inactive

In a second layout: results already given.
TDP1, technical replicate 2 → viability, normalised (%) = 74.4; outcome = active
TDP1, technical replicate 2 → viability, normalised (%) = 44; outcome = active
TDP1, technical replicate 3 → viability, normalised (%) = 51.9; outcome = active
